This is an account of results in US20260097098A1.

Amino acid sequences for entries named in this document (tags omitted). A change or cut given only in a name is not applied to a line headed by its entry. Chains listed by the source or under a name are the forms on record and can include a tag or linker.
human VEGF165 (non-biotinylated) (P15692, form named): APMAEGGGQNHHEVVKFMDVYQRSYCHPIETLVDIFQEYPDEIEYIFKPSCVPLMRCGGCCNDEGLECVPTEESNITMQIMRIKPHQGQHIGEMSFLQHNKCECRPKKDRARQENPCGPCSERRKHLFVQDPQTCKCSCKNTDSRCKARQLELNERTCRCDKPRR

The target in this assay is V1-2-3-4-Fc (Ig-like domains 1, 2, 3 and 4 of VEGFR-1 fused to human IgG1 Fc). The experiment in a line: competition, unlabelled VEGF165 varied against biotinylated VEGF165 (100 ng/ml) on coated receptor.

These are yes or no findings as the source states them, for the method shown. Some results given as binding are weak or reduced against the parent protein; the word gives no strength.

Regarding “human VEGF165 (non-biotinylated) (from UniProt P15692 27-191) (ligand)”, the binding result is “binds”.
